No constants are given. Whether binding was seen depends on the method and setting. Binding seen in cells or lysates may run through a third protein. Some entries that bind do so weakly or less than the wild type. For some assays here: Where a sequence is shown, tags or fusion partners need not be part of it.
Key:
[1] = target: Protein Kinase RNA-activated (PKR) (human (endogenous in Jurkat)) (UniProt P19525); test: co-IP; Jurkat cells mock-infected or infected with HIV-1 pNL4-3, lysates at day 15 (peak of infection); IP with anti-PKR or anti-ADAR1; blots with anti-PKR, anti-ADAR1, anti-PACT
[2] = target: T1, Adenosine Deaminase Acting on RNA (ADAR)1 (human (endogenous in Jurkat)) (UniProt P55265); test: as above
T1 sequence: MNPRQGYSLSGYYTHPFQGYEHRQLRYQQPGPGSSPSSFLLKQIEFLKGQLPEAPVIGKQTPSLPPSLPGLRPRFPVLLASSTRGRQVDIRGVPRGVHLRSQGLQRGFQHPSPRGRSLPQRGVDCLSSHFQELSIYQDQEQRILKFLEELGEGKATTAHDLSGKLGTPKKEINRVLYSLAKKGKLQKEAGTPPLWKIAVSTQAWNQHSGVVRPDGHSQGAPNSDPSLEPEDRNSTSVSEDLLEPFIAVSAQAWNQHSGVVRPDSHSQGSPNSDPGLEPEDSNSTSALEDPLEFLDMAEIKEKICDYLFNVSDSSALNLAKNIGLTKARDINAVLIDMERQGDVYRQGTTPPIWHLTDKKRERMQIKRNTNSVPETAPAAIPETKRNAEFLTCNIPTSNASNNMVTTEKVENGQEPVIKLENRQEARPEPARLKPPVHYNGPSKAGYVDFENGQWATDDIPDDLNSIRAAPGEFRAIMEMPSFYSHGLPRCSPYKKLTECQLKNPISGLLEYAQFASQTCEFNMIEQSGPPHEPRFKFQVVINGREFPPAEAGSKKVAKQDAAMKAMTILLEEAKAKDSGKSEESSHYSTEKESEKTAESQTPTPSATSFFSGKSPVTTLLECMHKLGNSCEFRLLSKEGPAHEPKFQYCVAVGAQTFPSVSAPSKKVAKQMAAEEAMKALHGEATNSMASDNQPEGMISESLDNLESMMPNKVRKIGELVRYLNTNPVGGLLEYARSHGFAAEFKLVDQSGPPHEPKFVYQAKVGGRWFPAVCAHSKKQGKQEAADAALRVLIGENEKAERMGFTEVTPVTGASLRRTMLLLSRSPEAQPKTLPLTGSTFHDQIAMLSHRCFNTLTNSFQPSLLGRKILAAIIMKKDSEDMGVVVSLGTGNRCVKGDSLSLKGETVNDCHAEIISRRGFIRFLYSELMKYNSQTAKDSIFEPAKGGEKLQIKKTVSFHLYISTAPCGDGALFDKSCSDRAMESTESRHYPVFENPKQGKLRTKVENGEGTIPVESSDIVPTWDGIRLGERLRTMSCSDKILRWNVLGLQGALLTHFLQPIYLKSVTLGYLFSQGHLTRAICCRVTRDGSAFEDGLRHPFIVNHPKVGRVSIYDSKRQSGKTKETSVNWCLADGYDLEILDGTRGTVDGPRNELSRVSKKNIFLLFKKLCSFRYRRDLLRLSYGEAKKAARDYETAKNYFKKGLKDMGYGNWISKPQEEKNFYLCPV

The chains behind the UniProt entries cited, without tags or fusion partners.
UniProt P19525: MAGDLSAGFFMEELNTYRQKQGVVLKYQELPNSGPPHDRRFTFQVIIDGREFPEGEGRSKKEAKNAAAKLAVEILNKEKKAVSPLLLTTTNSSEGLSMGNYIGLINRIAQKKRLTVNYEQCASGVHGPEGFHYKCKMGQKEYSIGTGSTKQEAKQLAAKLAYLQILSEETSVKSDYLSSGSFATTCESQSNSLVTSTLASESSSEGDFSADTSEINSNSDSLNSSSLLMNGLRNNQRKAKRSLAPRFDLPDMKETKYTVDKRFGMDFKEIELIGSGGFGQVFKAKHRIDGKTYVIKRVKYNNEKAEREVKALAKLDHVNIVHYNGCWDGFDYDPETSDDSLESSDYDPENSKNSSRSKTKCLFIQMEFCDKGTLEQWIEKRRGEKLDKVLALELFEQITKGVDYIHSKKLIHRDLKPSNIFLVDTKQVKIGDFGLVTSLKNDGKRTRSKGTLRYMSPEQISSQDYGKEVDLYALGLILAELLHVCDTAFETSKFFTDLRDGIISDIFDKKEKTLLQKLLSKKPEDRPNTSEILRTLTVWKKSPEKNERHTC

Flag-PACT [3] = target: T2, Flag-PACT (UniProt O75569); test: co-IP; as a2, but beads treated with 250 U/ml Benzonase in 50 mM Tris-HCl, 1 mM MgCl2, pH 8.0, 30 min 37°C (removal of RNAs)
T2 sequence: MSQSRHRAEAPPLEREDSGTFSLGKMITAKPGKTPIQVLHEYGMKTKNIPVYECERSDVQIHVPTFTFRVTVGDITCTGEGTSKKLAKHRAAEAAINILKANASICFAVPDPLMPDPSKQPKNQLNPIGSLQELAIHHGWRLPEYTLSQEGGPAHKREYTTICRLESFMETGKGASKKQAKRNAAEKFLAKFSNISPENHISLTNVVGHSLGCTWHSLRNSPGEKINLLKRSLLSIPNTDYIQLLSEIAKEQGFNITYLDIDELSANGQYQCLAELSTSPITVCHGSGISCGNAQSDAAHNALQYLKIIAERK

Flag-PACT [4] = target: T2, Flag-PACT; test: co-IP; HEK 293T transfected with Flag-PACT or ADAR1 p150-V5; IP with anti-Flag or anti-V5 on protein G agarose, 2 mg protein, overnight 4°C; blot for endogenous ADAR1 or PACT; no nuclease
ADAR1 p150-V5 = target: T3, ADAR1 p150-V5 (UniProt P55265); test: as above
T3 sequence: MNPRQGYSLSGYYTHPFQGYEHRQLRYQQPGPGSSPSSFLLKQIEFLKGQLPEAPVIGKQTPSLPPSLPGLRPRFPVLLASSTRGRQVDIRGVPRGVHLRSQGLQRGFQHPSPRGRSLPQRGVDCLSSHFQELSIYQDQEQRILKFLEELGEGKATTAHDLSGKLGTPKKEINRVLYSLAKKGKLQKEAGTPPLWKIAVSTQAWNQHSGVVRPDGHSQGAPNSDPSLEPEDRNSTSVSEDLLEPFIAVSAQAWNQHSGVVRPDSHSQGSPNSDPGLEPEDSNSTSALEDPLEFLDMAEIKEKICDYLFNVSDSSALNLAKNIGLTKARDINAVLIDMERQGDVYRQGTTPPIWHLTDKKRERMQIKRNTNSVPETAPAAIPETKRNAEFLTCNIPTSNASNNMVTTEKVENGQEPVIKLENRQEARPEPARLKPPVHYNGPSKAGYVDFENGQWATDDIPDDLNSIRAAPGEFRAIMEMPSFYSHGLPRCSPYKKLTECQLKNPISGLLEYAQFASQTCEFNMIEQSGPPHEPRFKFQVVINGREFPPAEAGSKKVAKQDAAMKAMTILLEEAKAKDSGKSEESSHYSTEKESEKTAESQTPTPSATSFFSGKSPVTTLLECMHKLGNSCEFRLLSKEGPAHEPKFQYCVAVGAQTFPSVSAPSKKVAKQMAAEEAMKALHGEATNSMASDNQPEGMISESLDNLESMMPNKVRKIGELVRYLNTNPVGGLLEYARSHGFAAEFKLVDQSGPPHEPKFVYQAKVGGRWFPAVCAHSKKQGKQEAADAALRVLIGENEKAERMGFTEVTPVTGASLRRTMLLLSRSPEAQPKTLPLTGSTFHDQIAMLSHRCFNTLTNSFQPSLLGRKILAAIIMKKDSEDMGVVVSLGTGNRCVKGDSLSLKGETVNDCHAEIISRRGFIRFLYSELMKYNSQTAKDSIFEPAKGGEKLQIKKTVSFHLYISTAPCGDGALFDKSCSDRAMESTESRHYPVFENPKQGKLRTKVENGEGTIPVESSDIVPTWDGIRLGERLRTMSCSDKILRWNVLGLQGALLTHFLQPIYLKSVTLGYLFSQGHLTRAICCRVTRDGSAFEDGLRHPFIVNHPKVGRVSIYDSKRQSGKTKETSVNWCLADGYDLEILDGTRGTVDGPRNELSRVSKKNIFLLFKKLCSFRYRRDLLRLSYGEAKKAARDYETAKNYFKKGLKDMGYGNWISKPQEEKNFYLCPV

B1: Adenosine Deaminase Acting on RNA (ADAR)1 (protein, UniProt P55265 1-1226)
chain: MNPRQGYSLSGYYTHPFQGYEHRQLRYQQPGPGSSPSSFLLKQIEFLKGQLPEAPVIGKQTPSLPPSLPGLRPRFPVLLASSTRGRQVDIRGVPRGVHLRSQGLQRGFQHPSPRGRSLPQRGVDCLSSHFQELSIYQDQEQRILKFLEELGEGKATTAHDLSGKLGTPKKEINRVLYSLAKKGKLQKEAGTPPLWKIAVSTQAWNQHSGVVRPDGHSQGAPNSDPSLEPEDRNSTSVSEDLLEPFIAVSAQAWNQHSGVVRPDSHSQGSPNSDPGLEPEDSNSTSALEDPLEFLDMAEIKEKICDYLFNVSDSSALNLAKNIGLTKARDINAVLIDMERQGDVYRQGTTPPIWHLTDKKRERMQIKRNTNSVPETAPAAIPETKRNAEFLTCNIPTSNASNNMVTTEKVENGQEPVIKLENRQEARPEPARLKPPVHYNGPSKAGYVDFENGQWATDDIPDDLNSIRAAPGEFRAIMEMPSFYSHGLPRCSPYKKLTECQLKNPISGLLEYAQFASQTCEFNMIEQSGPPHEPRFKFQVVINGREFPPAEAGSKKVAKQDAAMKAMTILLEEAKAKDSGKSEESSHYSTEKESEKTAESQTPTPSATSFFSGKSPVTTLLECMHKLGNSCEFRLLSKEGPAHEPKFQYCVAVGAQTFPSVSAPSKKVAKQMAAEEAMKALHGEATNSMASDNQPEGMISESLDNLESMMPNKVRKIGELVRYLNTNPVGGLLEYARSHGFAAEFKLVDQSGPPHEPKFVYQAKVGGRWFPAVCAHSKKQGKQEAADAALRVLIGENEKAERMGFTEVTPVTGASLRRTMLLLSRSPEAQPKTLPLTGSTFHDQIAMLSHRCFNTLTNSFQPSLLGRKILAAIIMKKDSEDMGVVVSLGTGNRCVKGDSLSLKGETVNDCHAEIISRRGFIRFLYSELMKYNSQTAKDSIFEPAKGGEKLQIKKTVSFHLYISTAPCGDGALFDKSCSDRAMESTESRHYPVFENPKQGKLRTKVENGEGTIPVESSDIVPTWDGIRLGERLRTMSCSDKILRWNVLGLQGALLTHFLQPIYLKSVTLGYLFSQGHLTRAICCRVTRDGSAFEDGLRHPFIVNHPKVGRVSIYDSKRQSGKTKETSVNWCLADGYDLEILDGTRGTVDGPRNELSRVSKKNIFLLFKKLCSFRYRRDLLRLSYGEAKKAARDYETAKNYFKKGLKDMGYGNWISKPQEEKNFYLCPV
[1]
  binding: binds

B2: PKR Activator (PACT) (protein, UniProt O75569 1-313)
chain: MSQSRHRAEAPPLEREDSGTFSLGKMITAKPGKTPIQVLHEYGMKTKNIPVYECERSDVQIHVPTFTFRVTVGDITCTGEGTSKKLAKHRAAEAAINILKANASICFAVPDPLMPDPSKQPKNQLNPIGSLQELAIHHGWRLPEYTLSQEGGPAHKREYTTICRLESFMETGKGASKKQAKRNAAEKFLAKFSNISPENHISLTNVVGHSLGCTWHSLRNSPGEKINLLKRSLLSIPNTDYIQLLSEIAKEQGFNITYLDIDELSANGQYQCLAELSTSPITVCHGSGISCGNAQSDAAHNALQYLKIIAERK
[2]
  binding: binds

B3: endogenous ADAR1 (HEK 293T) (protein, UniProt P55265 1-1226)
chain: MNPRQGYSLSGYYTHPFQGYEHRQLRYQQPGPGSSPSSFLLKQIEFLKGQLPEAPVIGKQTPSLPPSLPGLRPRFPVLLASSTRGRQVDIRGVPRGVHLRSQGLQRGFQHPSPRGRSLPQRGVDCLSSHFQELSIYQDQEQRILKFLEELGEGKATTAHDLSGKLGTPKKEINRVLYSLAKKGKLQKEAGTPPLWKIAVSTQAWNQHSGVVRPDGHSQGAPNSDPSLEPEDRNSTSVSEDLLEPFIAVSAQAWNQHSGVVRPDSHSQGSPNSDPGLEPEDSNSTSALEDPLEFLDMAEIKEKICDYLFNVSDSSALNLAKNIGLTKARDINAVLIDMERQGDVYRQGTTPPIWHLTDKKRERMQIKRNTNSVPETAPAAIPETKRNAEFLTCNIPTSNASNNMVTTEKVENGQEPVIKLENRQEARPEPARLKPPVHYNGPSKAGYVDFENGQWATDDIPDDLNSIRAAPGEFRAIMEMPSFYSHGLPRCSPYKKLTECQLKNPISGLLEYAQFASQTCEFNMIEQSGPPHEPRFKFQVVINGREFPPAEAGSKKVAKQDAAMKAMTILLEEAKAKDSGKSEESSHYSTEKESEKTAESQTPTPSATSFFSGKSPVTTLLECMHKLGNSCEFRLLSKEGPAHEPKFQYCVAVGAQTFPSVSAPSKKVAKQMAAEEAMKALHGEATNSMASDNQPEGMISESLDNLESMMPNKVRKIGELVRYLNTNPVGGLLEYARSHGFAAEFKLVDQSGPPHEPKFVYQAKVGGRWFPAVCAHSKKQGKQEAADAALRVLIGENEKAERMGFTEVTPVTGASLRRTMLLLSRSPEAQPKTLPLTGSTFHDQIAMLSHRCFNTLTNSFQPSLLGRKILAAIIMKKDSEDMGVVVSLGTGNRCVKGDSLSLKGETVNDCHAEIISRRGFIRFLYSELMKYNSQTAKDSIFEPAKGGEKLQIKKTVSFHLYISTAPCGDGALFDKSCSDRAMESTESRHYPVFENPKQGKLRTKVENGEGTIPVESSDIVPTWDGIRLGERLRTMSCSDKILRWNVLGLQGALLTHFLQPIYLKSVTLGYLFSQGHLTRAICCRVTRDGSAFEDGLRHPFIVNHPKVGRVSIYDSKRQSGKTKETSVNWCLADGYDLEILDGTRGTVDGPRNELSRVSKKNIFLLFKKLCSFRYRRDLLRLSYGEAKKAARDYETAKNYFKKGLKDMGYGNWISKPQEEKNFYLCPV
Flag-PACT [3]
  binding: binds
Flag-PACT [4]
  binding: binds

B4: endogenous PACT (HEK 293T) (protein, UniProt O75569 1-313)
chain: MSQSRHRAEAPPLEREDSGTFSLGKMITAKPGKTPIQVLHEYGMKTKNIPVYECERSDVQIHVPTFTFRVTVGDITCTGEGTSKKLAKHRAAEAAINILKANASICFAVPDPLMPDPSKQPKNQLNPIGSLQELAIHHGWRLPEYTLSQEGGPAHKREYTTICRLESFMETGKGASKKQAKRNAAEKFLAKFSNISPENHISLTNVVGHSLGCTWHSLRNSPGEKINLLKRSLLSIPNTDYIQLLSEIAKEQGFNITYLDIDELSANGQYQCLAELSTSPITVCHGSGISCGNAQSDAAHNALQYLKIIAERK
ADAR1 p150-V5
  binding: binds

Reference: publication PMC3848765
